The source of these data is the supplement of paper PMC7666118.

The chains behind the UniProt entries cited, without tags or fusion partners. Where a name states a change or a piece, a line headed by the entry shows the natural chain unless it says otherwise.
UniProt Q96PY6: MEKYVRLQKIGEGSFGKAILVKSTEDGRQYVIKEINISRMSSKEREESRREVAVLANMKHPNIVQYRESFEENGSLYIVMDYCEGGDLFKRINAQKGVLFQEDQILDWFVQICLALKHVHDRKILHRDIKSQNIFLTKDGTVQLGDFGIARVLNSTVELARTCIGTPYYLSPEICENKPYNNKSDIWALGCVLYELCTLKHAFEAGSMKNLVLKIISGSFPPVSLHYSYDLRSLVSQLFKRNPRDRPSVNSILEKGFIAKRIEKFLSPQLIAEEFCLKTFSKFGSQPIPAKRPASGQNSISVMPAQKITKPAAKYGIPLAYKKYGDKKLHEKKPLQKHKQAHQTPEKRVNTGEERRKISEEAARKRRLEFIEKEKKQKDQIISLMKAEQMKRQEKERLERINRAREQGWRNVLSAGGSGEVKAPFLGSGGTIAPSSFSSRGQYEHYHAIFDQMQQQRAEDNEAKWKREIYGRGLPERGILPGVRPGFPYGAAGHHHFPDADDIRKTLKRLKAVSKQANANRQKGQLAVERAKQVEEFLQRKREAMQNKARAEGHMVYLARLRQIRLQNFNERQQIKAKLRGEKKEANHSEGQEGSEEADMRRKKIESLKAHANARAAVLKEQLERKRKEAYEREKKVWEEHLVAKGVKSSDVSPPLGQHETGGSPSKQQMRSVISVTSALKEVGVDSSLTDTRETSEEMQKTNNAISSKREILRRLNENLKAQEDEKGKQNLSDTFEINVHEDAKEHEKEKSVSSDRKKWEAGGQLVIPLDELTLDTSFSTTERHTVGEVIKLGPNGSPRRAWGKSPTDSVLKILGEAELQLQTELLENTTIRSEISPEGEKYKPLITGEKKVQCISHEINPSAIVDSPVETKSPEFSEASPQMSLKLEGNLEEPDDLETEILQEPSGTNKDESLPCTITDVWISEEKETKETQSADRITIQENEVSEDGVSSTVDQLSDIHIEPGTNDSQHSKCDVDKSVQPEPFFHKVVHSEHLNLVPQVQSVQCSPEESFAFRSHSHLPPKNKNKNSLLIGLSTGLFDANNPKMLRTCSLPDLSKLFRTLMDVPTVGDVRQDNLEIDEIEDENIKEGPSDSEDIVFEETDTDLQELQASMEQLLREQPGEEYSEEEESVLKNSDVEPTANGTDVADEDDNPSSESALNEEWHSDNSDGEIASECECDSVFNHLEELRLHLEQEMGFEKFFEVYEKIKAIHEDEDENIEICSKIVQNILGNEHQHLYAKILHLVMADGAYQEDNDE
UniProt P19404, whole entry: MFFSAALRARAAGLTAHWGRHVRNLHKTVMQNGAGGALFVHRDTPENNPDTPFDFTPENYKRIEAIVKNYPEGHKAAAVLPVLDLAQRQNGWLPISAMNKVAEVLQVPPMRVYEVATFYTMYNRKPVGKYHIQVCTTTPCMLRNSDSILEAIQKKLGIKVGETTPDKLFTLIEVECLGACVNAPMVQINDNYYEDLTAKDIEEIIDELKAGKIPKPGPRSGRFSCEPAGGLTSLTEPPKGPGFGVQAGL
UniProt P15531, whole entry, looked up: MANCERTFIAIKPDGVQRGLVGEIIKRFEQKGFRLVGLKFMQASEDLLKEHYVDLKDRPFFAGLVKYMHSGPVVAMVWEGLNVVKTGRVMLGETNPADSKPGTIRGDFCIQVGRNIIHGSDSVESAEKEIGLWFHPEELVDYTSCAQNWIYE
UniProt Q8TDX7: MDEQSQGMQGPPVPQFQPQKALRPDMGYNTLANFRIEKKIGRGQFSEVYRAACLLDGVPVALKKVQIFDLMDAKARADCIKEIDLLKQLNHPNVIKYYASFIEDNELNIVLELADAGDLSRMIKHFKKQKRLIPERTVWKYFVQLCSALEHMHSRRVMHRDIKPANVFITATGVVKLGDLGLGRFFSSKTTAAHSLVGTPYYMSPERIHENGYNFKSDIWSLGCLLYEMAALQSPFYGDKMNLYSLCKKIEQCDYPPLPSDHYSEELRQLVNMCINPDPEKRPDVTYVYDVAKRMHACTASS
UniProt Q99733: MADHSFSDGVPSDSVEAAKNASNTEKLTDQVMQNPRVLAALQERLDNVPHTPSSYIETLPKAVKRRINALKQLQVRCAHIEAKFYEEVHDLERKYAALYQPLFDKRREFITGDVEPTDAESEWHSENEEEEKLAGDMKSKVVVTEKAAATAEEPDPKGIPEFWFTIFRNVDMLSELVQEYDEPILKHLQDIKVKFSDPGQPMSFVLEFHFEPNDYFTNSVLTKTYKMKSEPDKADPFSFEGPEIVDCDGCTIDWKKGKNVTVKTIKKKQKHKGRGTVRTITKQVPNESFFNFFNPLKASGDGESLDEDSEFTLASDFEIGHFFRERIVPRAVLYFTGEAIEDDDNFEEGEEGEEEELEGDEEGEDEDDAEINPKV
UniProt Q86UD5: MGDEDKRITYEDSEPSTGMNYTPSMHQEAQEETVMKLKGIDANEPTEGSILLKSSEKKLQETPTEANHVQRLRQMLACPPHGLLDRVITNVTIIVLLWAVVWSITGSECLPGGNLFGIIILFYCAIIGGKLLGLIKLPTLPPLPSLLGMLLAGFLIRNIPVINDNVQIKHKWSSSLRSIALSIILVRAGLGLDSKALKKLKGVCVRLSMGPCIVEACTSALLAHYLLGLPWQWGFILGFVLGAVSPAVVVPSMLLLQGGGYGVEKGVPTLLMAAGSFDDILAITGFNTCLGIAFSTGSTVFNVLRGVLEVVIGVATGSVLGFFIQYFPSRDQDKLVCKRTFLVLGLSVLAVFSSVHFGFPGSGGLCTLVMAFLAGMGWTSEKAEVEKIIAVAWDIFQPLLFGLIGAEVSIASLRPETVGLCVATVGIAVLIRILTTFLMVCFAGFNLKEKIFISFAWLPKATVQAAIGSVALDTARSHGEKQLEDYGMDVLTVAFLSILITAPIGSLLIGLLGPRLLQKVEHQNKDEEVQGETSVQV
UniProt O14786, whole entry: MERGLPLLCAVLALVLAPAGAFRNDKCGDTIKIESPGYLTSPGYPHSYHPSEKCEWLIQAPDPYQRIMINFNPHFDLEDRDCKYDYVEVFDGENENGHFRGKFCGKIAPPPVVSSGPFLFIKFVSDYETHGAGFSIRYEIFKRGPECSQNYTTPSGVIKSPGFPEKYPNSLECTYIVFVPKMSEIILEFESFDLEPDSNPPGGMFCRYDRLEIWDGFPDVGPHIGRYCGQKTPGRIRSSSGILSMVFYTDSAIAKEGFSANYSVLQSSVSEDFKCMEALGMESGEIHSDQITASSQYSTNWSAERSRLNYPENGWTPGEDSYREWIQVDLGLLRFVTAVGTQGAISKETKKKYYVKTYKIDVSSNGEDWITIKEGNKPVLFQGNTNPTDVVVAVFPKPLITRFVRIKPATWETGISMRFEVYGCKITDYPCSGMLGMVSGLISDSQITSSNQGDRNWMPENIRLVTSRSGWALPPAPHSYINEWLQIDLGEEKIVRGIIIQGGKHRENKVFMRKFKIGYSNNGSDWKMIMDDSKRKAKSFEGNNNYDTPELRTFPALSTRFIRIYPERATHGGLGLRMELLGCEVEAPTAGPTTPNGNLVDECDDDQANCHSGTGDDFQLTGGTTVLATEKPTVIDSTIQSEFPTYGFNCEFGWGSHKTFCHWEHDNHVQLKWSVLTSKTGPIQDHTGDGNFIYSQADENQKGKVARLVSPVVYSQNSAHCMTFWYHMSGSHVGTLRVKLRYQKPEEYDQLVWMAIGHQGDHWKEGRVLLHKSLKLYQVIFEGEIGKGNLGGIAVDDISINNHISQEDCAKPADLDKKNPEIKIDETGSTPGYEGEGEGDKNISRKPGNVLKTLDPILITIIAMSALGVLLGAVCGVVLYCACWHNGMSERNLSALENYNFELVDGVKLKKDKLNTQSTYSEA
UniProt P78316: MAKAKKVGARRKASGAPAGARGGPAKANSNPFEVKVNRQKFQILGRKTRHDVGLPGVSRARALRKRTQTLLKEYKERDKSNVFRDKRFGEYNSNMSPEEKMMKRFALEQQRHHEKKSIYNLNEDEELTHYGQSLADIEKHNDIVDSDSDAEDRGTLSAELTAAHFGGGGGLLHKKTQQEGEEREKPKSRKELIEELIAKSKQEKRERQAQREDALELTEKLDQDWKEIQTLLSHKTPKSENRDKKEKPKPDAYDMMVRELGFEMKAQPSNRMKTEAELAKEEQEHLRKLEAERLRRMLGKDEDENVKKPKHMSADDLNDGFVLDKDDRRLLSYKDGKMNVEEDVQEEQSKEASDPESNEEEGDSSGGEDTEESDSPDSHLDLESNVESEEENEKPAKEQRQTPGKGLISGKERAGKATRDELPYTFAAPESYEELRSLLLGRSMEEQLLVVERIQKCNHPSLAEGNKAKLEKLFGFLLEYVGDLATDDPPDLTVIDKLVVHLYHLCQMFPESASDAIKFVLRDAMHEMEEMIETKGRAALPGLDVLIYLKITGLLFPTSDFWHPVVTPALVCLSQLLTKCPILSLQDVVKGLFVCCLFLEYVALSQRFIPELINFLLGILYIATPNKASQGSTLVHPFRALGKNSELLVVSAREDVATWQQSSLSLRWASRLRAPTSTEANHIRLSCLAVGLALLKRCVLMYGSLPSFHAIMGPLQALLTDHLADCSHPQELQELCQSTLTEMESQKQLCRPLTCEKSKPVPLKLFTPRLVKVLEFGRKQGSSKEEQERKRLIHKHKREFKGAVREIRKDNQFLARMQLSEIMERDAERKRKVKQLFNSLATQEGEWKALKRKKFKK
UniProt O75438, whole entry: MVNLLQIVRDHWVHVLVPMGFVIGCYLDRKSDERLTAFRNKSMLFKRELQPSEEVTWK
UniProt Q9UMY1: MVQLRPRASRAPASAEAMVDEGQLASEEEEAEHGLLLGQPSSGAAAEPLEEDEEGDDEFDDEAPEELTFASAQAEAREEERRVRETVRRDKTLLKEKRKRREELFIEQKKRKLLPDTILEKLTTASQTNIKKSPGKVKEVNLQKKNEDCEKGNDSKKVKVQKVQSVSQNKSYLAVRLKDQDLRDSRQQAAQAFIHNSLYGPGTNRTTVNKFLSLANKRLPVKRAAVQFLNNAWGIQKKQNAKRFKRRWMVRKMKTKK
UniProt P08651, whole entry: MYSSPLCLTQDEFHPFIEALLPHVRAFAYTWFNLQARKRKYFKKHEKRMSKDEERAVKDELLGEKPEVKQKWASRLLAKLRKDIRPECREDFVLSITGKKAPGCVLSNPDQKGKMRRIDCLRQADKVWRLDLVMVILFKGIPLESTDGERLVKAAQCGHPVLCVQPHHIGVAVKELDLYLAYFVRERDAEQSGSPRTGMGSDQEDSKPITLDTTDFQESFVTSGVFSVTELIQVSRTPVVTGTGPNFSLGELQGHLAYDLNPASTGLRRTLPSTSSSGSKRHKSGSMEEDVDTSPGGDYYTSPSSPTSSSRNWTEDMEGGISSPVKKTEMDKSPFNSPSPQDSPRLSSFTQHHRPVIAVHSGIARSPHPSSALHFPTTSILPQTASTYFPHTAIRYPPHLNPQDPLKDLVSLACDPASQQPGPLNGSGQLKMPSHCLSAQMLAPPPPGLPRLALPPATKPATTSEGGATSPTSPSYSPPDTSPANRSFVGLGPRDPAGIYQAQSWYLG
UniProt Q8N8Q9: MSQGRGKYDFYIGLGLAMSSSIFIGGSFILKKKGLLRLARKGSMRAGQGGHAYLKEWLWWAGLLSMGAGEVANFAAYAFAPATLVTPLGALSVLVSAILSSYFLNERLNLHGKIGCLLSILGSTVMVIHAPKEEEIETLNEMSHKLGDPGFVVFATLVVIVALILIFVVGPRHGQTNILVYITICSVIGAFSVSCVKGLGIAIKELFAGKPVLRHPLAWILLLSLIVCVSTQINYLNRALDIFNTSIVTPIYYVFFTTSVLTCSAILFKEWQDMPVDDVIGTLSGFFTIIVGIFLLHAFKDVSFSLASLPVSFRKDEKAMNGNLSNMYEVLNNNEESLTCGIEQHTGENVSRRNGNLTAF
UniProt P61916: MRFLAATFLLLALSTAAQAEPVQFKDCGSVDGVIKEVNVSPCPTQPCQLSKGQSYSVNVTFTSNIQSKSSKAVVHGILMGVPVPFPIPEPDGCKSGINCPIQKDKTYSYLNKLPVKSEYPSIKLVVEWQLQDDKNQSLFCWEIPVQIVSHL
UniProt Q13232: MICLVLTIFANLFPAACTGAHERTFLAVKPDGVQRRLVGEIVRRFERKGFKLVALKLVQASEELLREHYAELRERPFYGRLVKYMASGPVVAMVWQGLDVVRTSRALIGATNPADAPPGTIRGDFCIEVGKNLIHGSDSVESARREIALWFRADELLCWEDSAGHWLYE
UniProt P24468: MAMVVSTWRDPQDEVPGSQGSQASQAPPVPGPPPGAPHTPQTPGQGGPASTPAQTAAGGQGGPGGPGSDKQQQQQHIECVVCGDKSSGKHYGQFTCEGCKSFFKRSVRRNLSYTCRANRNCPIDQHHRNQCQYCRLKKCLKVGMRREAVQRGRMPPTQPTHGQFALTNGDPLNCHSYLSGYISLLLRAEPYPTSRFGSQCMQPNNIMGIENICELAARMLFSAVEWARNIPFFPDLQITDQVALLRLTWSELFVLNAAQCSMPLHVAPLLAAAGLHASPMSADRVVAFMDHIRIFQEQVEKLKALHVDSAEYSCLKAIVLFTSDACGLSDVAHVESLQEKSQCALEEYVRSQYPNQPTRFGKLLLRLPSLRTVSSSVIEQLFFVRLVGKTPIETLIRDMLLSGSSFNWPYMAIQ

Some of the results follow.

Compound in this assay: COc1ccc(Cn2ccc3cc(C)c(C(=O)NO)cc32)cc1
As to the kind of experiment: dose-dependent thermal stabilisation call (2D-TPP, DLPTP, 10% FDR) (binary (1 = stabilised)); higher = stabilised by the compound. The following applies: system: HL-60 intact cells; concentration range 0.04-10 µM. The method, then: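 2D thermal proteome profiling in intact HL-60 cells treated with BRD-3811 (0, 0.04, 0.29, 2, 10 uM) for 90 min at 37 C, then heated 3 min at one of 12 temperatures (42-63.9 C). Soluble protein was quantified by TMT10 MS. The value is the DLPTP call of the paper: dose-dependent thermal stabilisation over all temperatures at 10% FDR (F-test of a dose-response against a flat model); one experiment, one call per tested protein.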
On to NEK1 (UniProt Q96PY6), for which the “dose-dependent thermal stabilisation call” value is inactive: 0.

NOB1 (UniProt Q9ULX3): the “dose-dependent thermal stabilisation call” value is inactive: 0.

NDUFS8 (UniProt O00217): the “dose-dependent thermal stabilisation call” value is inactive: 0.

For the target NDUFV2 (UniProt P19404), the “dose-dependent thermal stabilisation call” value is inactive: 0.

NGDN (UniProt Q8NEJ9): the “dose-dependent thermal stabilisation call” value was inactive: 0.

As for NME1-NME2 (UniProt P15531), the “dose-dependent thermal stabilisation call” value is inactive: 0.

Consider NLRC3 (UniProt Q7RTR2), for which the “dose-dependent thermal stabilisation call” value is inactive: 0.

On to NSUN6 (UniProt Q8TEA1), for which the “dose-dependent thermal stabilisation call” value is inactive: 0.

NCSTN (UniProt Q92542): the “dose-dependent thermal stabilisation call” value was inactive: 0.

Turning to NEK7 (UniProt Q8TDX7), the “dose-dependent thermal stabilisation call” value was inactive: 0.

In the case of NOMO2 (UniProt Q5JPE7), the “dose-dependent thermal stabilisation call” value was inactive: 0.

As for NDUFAF1 (UniProt Q9Y375), the “dose-dependent thermal stabilisation call” value was inactive: 0.

In the case of NAP1L4 (UniProt Q99733), the “dose-dependent thermal stabilisation call” value is inactive: 0.

As to NHEDC2 (UniProt Q86UD5), the “dose-dependent thermal stabilisation call” value was inactive: 0.

With NRP1 (UniProt O14786), the “dose-dependent thermal stabilisation call” value is inactive: 0.

Turning to NBEAL2 (UniProt Q6ZNJ1), the “dose-dependent thermal stabilisation call” value was inactive: 0.

As for NOP14 (UniProt P78316), the “dose-dependent thermal stabilisation call” value was inactive: 0.

Turning to NHP2L1 (UniProt P55769), the “dose-dependent thermal stabilisation call” value is inactive: 0.

For NUDT8 (UniProt Q8WV74), the “dose-dependent thermal stabilisation call” value was inactive: 0.

Turning to OCIAD1 (UniProt Q9NX40), the “dose-dependent thermal stabilisation call” value is inactive: 0.

Turning to NOC3L (UniProt Q8WTT2), the “dose-dependent thermal stabilisation call” value is inactive: 0.

For the target NBEA (UniProt Q8NFP9), the “dose-dependent thermal stabilisation call” value is inactive: 0.

For the target NUB1 (UniProt Q9Y5A7), the “dose-dependent thermal stabilisation call” value was inactive: 0.

With NDUFB1 (UniProt O75438), the “dose-dependent thermal stabilisation call” value was inactive: 0.

As for NSMAF (UniProt Q92636), the “dose-dependent thermal stabilisation call” value was inactive: 0.

Regarding NOL7 (UniProt Q9UMY1), the “dose-dependent thermal stabilisation call” value is inactive: 0.

NAT10 (UniProt Q9H0A0): the “dose-dependent thermal stabilisation call” value was inactive: 0.

For the target NFIC (UniProt P08651), the “dose-dependent thermal stabilisation call” value was inactive: 0.

Turning to NUDCD1 (UniProt Q96RS6), the “dose-dependent thermal stabilisation call” value is inactive: 0.

As for NIPA2 (UniProt Q8N8Q9), the “dose-dependent thermal stabilisation call” value was inactive: 0.

Regarding NPC2 (UniProt P61916), the “dose-dependent thermal stabilisation call” value was inactive: 0.

As to NCOR2 (UniProt Q9Y618), the “dose-dependent thermal stabilisation call” value was inactive: 0.

NNT (UniProt Q13423): the “dose-dependent thermal stabilisation call” value is inactive: 0.

As to NCAPD2 (UniProt Q15021), the “dose-dependent thermal stabilisation call” value was inactive: 0.

Regarding NME3 (UniProt Q13232), the “dose-dependent thermal stabilisation call” value is inactive: 0.

In the case of NR2F2 (UniProt P24468), the “dose-dependent thermal stabilisation call” value was inactive: 0.
